# In paper PMC7819943, “Rice protein-binding microarrays: a tool to detect cis-acting elements near promoter regions in rice”:
# The chains behind the UniProt entries cited, without tags or fusion partners.
# UniProt Q0JBA9, entry or part of it: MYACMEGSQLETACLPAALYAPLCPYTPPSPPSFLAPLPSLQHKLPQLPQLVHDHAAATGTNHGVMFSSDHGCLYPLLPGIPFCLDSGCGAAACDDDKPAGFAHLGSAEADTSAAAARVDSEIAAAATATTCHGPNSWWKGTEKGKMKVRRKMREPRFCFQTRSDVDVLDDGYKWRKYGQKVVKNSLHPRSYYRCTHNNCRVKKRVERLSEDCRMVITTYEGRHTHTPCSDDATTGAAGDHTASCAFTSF
# The list shows a part of the results.
# Molecular target: OsWRKY34 (Oryza sativa, UniProt Q0JBA9 1-250)
# Assay: protein-binding microarray (RPBM); PBS, 2% BSA, 51.3 ng/ul salmon testes DNA, 50 uM zinc acetate, 200 nM TF, 25 C, 1 h; high values mean tight binding
# Details: protein: recombinant; tags: N-terminal polyhistidine and DsRed monomer fusion (pET32a); label: CyDye5-dUTP incorporated in the synthesized complementary strand; 3' TTTTT single-stranded linker to array surface; dsDNA, one strand shown
# Procedure, shortened: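 Using Ni–NTA, transcription factors fused N-terminally to polyhistidine and DsRed were purified after expression in E. coli BL21-CodonPlus. These were incubated at 200 nM with a blocked, double-stranded custom Agilent array for 1 h at 25 °C in a buffer containing 50 µM zinc acetate, and the array was washed. The binding signal is per-feature fluorescence intensity (arbitrary units) on an Axon 4000B scanner.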
row,Sequence,binding signal
1,TTGTTTCTGTTCATTTTTCTCTATAGTACTTGCTAGGTGACGGAGTCACCTAGTGCAG,11500 fluorescence intensity (a.u.)
2,GGGCTCTATCTAGCTCGGGGCAGGGCGGGGACGACATGGACGGAGTCACCTAGTGCAG,12500 fluorescence intensity (a.u.)
3,CTCGTCATTGTTCCCATGTTTTTCTATTTCATTTCTAATTCGGAGTCACCTAGTGCAG,9350 fluorescence intensity (a.u.)
4,GATTTGCTACTCTTAATCTATCGGTGTCTGATCTAATCAACGGAGTCACCTAGTGCAG,9190 fluorescence intensity (a.u.)
5,GTGCGGCCTGGGTGGGTGCGTCTTTTCGCTTCTCCTTTTCCGGAGTCACCTAGTGCAG,13500 fluorescence intensity (a.u.)
6,TTTAAATGCCTTCGTTACCTTTACTCCGAGTGACATTCATCGGAGTCACCTAGTGCAG,9370 fluorescence intensity (a.u.)
7,GTGTTGGTACTAGAATGCTGGTTTTAAAGTGGAGATTAGTCGGAGTCACCTAGTGCAG,9240 fluorescence intensity (a.u.)
8,AATGGATCCCACACCGATTTTTCACCTTGTGTTGCCACGTCGGAGTCACCTAGTGCAG,9430 fluorescence intensity (a.u.)
9,CTTCCACGTCTCGTCGCTTCCCGCAATTTTTTCAGTCATGCGGAGTCACCTAGTGCAG,8610 fluorescence intensity (a.u.)
10,ATGTATTATCCCATCCATCCAGTACTAGATATTTATATTTCGGAGTCACCTAGTGCAG,8700 fluorescence intensity (a.u.)
11,ACCTCCACGATTTCTCGCGCCGCCGCCGCCGCCGCCGCCGCGGAGTCACCTAGTGCAG,9420 fluorescence intensity (a.u.)
12,AAGTATCCTAGCTCCGTTTTTTTAAGTACTTCCTTGTTTCCGGAGTCACCTAGTGCAG,14200 fluorescence intensity (a.u.)
13,GGCAGGAAGGTGAAGAGGCAACGAGCCATGGCTAGAGGTTCGGAGTCACCTAGTGCAG,12300 fluorescence intensity (a.u.)
14,TTTGGACCACTCTTACATCCTTTATATTATCCATCTATTGCGGAGTCACCTAGTGCAG,8390 fluorescence intensity (a.u.)
15,TCTTAGGGATGTGTTTGGCAAATGGGATATGGGAGGTGGGCGGAGTCACCTAGTGCAG,11100 fluorescence intensity (a.u.)
16,TAGCTCCAGTATTAATTTCTTTCCATCCTCCATTTTCTTGCGGAGTCACCTAGTGCAG,9120 fluorescence intensity (a.u.)
17,CCAATGTCAAATTTGTGACTTTCTCGTTACATGTTCAAGGCGGAGTCACCTAGTGCAG,8100 fluorescence intensity (a.u.)
18,GCTTCACGCCTCTCCTACTGCACATTGCACCTCGAGTCCACGGAGTCACCTAGTGCAG,8220 fluorescence intensity (a.u.)
19,TGTATTTCTGCATCACTTTCTATTTCATATTCTTCATTCCCGGAGTCACCTAGTGCAG,8390 fluorescence intensity (a.u.)
20,CACTTCTCTGCAAGCTGGACGGGGTGAGGTGGGAGGGCGGCGGAGTCACCTAGTGCAG,13700 fluorescence intensity (a.u.)
21,GACCCTACTCTGGGTTGTTACGGGCTTATTCACTTTGTGGCGGAGTCACCTAGTGCAG,9490 fluorescence intensity (a.u.)

row,Sequence,binding signal
1,GGGCTGACGGGTGGGGTCCATGTTGTTTTCCTCTTAGGCACGGAGTCACCTAGTGCAG,23000 fluorescence intensity (a.u.)
2,GTAGTTGCCGTATACCCTTCACTTCATTTAATACGTGCGGCGGAGTCACCTAGTGCAG,8020 fluorescence intensity (a.u.)
3,TACCTTAACTGGTTAATTTCTTCTGTATTTTTTTCCTTATCGGAGTCACCTAGTGCAG,8470 fluorescence intensity (a.u.)
4,AACGAGTCCCGTCTCTAACCGTACTTCAGTCGCTTGTCTCCGGAGTCACCTAGTGCAG,10400 fluorescence intensity (a.u.)
5,CGTTCCGTTTTTTGTATGTACTGTGCGTGTTGGGAACCGACGGAGTCACCTAGTGCAG,10300 fluorescence intensity (a.u.)
6,GGTGACTGACACGTTGGGTCGCTTCATTCCATAGTTAGGCCGGAGTCACCTAGTGCAG,8810 fluorescence intensity (a.u.)
7,GCTGACATGTGGGTCCCTTTTTTATTTTTTTTACTGGCATCGGAGTCACCTAGTGCAG,8280 fluorescence intensity (a.u.)
8,CTTCTCTCTCCGCATCCGCCTCCGCAACTGCAAACCGCTGCGGAGTCACCTAGTGCAG,10900 fluorescence intensity (a.u.)
9,CTCTCTCTCTCTCCCAGCTGGTTCGCGCGGCCACCAAACACGGAGTCACCTAGTGCAG,10200 fluorescence intensity (a.u.)
10,TTTAGATGATAGATCTATGGTCCAAATTGTCTTTTCTTTCCGGAGTCACCTAGTGCAG,8850 fluorescence intensity (a.u.)
11,AAGCCGGCCAGCGCATTTCGCCCTTTCTTTCATGTTGACCCGGAGTCACCTAGTGCAG,8610 fluorescence intensity (a.u.)
12,ATGAGAAAAAGTCAACGACGTCGTCTATTAAAAAACGGTGCGGAGTCACCTAGTGCAG,10600 fluorescence intensity (a.u.)
13,TGTTAGCTCAATTTTCCTCGGTTTCATAATCTATCCAATCCGGAGTCACCTAGTGCAG,9160 fluorescence intensity (a.u.)
14,CTCAGTTCCATCGCCTACTGCTTGATCTTGTAATCTTTGACGGAGTCACCTAGTGCAG,9090 fluorescence intensity (a.u.)
15,CTCTTGTCATTTCGGCCTATGCGTGTAACTTGTTTTATATCGGAGTCACCTAGTGCAG,8640 fluorescence intensity (a.u.)
16,CATTTAGGTCCCTTGCCGCCCTGTGGAAGGGCGATTTTTACGGAGTCACCTAGTGCAG,8250 fluorescence intensity (a.u.)
17,TGTGTATGATTTTTTTATAAATTTTTTGGTGACATTTTTACGGAGTCACCTAGTGCAG,8420 fluorescence intensity (a.u.)
18,CCTGATCGCCTCCTCCGCCACCGCCGTGTTCGATTCGTCTCGGAGTCACCTAGTGCAG,9670 fluorescence intensity (a.u.)
19,GCCCATTCGCCCTCGCGCCGCGCCGCGCCGCCCGCCGCCGCGGAGTCACCTAGTGCAG,8970 fluorescence intensity (a.u.)
20,CTCAACTCAATCGCCCGCGCCTACCGTCGCCCTGCGCCGACGGAGTCACCTAGTGCAG,12400 fluorescence intensity (a.u.)
21,TTGTTACTTTAATTTGTACATCATCATGCGGGTCCGTATACGGAGTCACCTAGTGCAG,16600 fluorescence intensity (a.u.)

# Quoted at random: five entries already listed.
row,Sequence,binding signal
11,AAGCCGGCCAGCGCATTTCGCCCTTTCTTTCATGTTGACCCGGAGTCACCTAGTGCAG,8610 fluorescence intensity (a.u.)
20,CACTTCTCTGCAAGCTGGACGGGGTGAGGTGGGAGGGCGGCGGAGTCACCTAGTGCAG,13700 fluorescence intensity (a.u.)
6,TTTAAATGCCTTCGTTACCTTTACTCCGAGTGACATTCATCGGAGTCACCTAGTGCAG,9370 fluorescence intensity (a.u.)
11,ACCTCCACGATTTCTCGCGCCGCCGCCGCCGCCGCCGCCGCGGAGTCACCTAGTGCAG,9420 fluorescence intensity (a.u.)
4,GATTTGCTACTCTTAATCTATCGGTGTCTGATCTAATCAACGGAGTCACCTAGTGCAG,9190 fluorescence intensity (a.u.)

# The listing continues:

row,Sequence,binding signal
1,TGATTTATAGCAGCTAGTTGACTCTACTATTGGACTTGCTCGGAGTCACCTAGTGCAG,9210 fluorescence intensity (a.u.)
2,CCACGCTCTCACTCCTCCACTCCACTCGTCGAGAAAAATGCGGAGTCACCTAGTGCAG,8490 fluorescence intensity (a.u.)
3,GTTCGTGTCGATTTGACTGTGCGTGTCTCTTATGGAGTTTCGGAGTCACCTAGTGCAG,11900 fluorescence intensity (a.u.)
4,GCTTCTTCTGTTCTGAAGCAGTGGCTTTTTGTGGTTTATGCGGAGTCACCTAGTGCAG,8250 fluorescence intensity (a.u.)
5,TAAGTGACTTATCTTTTTAATTTTTTTCATAAGTTTTTTACGGAGTCACCTAGTGCAG,8660 fluorescence intensity (a.u.)
6,ATCCTCGGCTGTTAAAGTTTGCTTCATACACGATCTGCTTCGGAGTCACCTAGTGCAG,9860 fluorescence intensity (a.u.)
7,ATCCTGAATTTGATTCCAACGTTTGTAACCGCCTCCAAATCGGAGTCACCTAGTGCAG,8110 fluorescence intensity (a.u.)
8,CACGCACGCATCTCAAAGCCACACACGCGTCTCCACAACACGGAGTCACCTAGTGCAG,8660 fluorescence intensity (a.u.)
9,CAGTTCTTATCGTTATATTATTACTAAATAGTGTTCTTTTCGGAGTCACCTAGTGCAG,8630 fluorescence intensity (a.u.)
10,TCAGCAGCAATGGCGATATCGTTGATTTCACGACCTGCTCCGGAGTCACCTAGTGCAG,11800 fluorescence intensity (a.u.)
11,TACTTATCGAAATCTTCCGTCATCATCCACCCTTTTATAACGGAGTCACCTAGTGCAG,8790 fluorescence intensity (a.u.)
12,GTCGAGTGTCAAAATGTGTGTGCTTTTCTGTAACTTGAACCGGAGTCACCTAGTGCAG,10200 fluorescence intensity (a.u.)
13,AGATTTGCAATATATACTTACTGTCTTACTCACTGCATTTCGGAGTCACCTAGTGCAG,14500 fluorescence intensity (a.u.)
14,TCTCTGGATTCGCTGTCCAGGGCTGCGCTTGTACACCTACCGGAGTCACCTAGTGCAG,8240 fluorescence intensity (a.u.)
15,CCCCGATTCTCCTCGCCCCGCCTCAGTCCAACGGTGCTCCCGGAGTCACCTAGTGCAG,8390 fluorescence intensity (a.u.)
16,AACATACAGATTACCTGCTTTCTTCATTTCCGTGTTCAGCCGGAGTCACCTAGTGCAG,9210 fluorescence intensity (a.u.)
17,CTCTCATCTGCATCAGTATTCTTTTTATCAGATTTGCAGACGGAGTCACCTAGTGCAG,8370 fluorescence intensity (a.u.)
18,CTTGTTTGACTGACATATGGGTTCTGCATGTTTTGTTTTACGGAGTCACCTAGTGCAG,8330 fluorescence intensity (a.u.)
19,TCTTCCCGCCTTTTTTTTCTTTGTTATTTTTCTTTTTTTTCGGAGTCACCTAGTGCAG,18000 fluorescence intensity (a.u.)
20,ATGCTCCACTGATCGTCTTCTACTTACTCCTCTTTCTTCCCGGAGTCACCTAGTGCAG,11900 fluorescence intensity (a.u.)
21,CAAGCCCACAAATCAGCTTTAAATACCCTTTGATTTTTTCCGGAGTCACCTAGTGCAG,8220 fluorescence intensity (a.u.)

row,Sequence,binding signal
1,ACCGAACACCCACGCCAGCCGCCGCGCGCTGCCGCCCCATCGGAGTCACCTAGTGCAG,12500 fluorescence intensity (a.u.)
2,CGTCTCCGCCGCCTTCCACGCCGCCCACGTCGCGCCGCACCGGAGTCACCTAGTGCAG,8710 fluorescence intensity (a.u.)
3,TGCCTTCCTGCCTTCAAACTCGATCTCTCCTGTCTAATTTCGGAGTCACCTAGTGCAG,9520 fluorescence intensity (a.u.)
4,AGCCGATCATTGTCATCTTATTGCCCTGCTTATTTCCAATCGGAGTCACCTAGTGCAG,9050 fluorescence intensity (a.u.)
5,GATGGTGTTACTATTCTTGCATGTTTACCTTCCCTTGTTCCGGAGTCACCTAGTGCAG,14800 fluorescence intensity (a.u.)
6,GTTAGAGACTAAATCAATACTTCATTCGTCCCATGATATTCGGAGTCACCTAGTGCAG,8060 fluorescence intensity (a.u.)
7,CTCCACCTCGCCGCGGCCGGGCGCGTACGCCGCCATGCTCCGGAGTCACCTAGTGCAG,8680 fluorescence intensity (a.u.)
8,ACATGGTAGAACGACTCATCTTGGATGCTTCTTGACTCACCGGAGTCACCTAGTGCAG,8480 fluorescence intensity (a.u.)
9,CAACCGCACTACTACTGTTTAGGCCCAAGGTCAACGTTGTCGGAGTCACCTAGTGCAG,9770 fluorescence intensity (a.u.)
10,TCCTCTTAACTATAACTTATATTCAATTTATGTCTCTCGACGGAGTCACCTAGTGCAG,8140 fluorescence intensity (a.u.)
11,CTCCCTCAATCTCTCTCTCTCTCTGCATAGATGCTGCTACCGGAGTCACCTAGTGCAG,10400 fluorescence intensity (a.u.)
12,CTTAGCTCGCTTTTATCTTTTCCGCTGCATTTGTAATCTTCGGAGTCACCTAGTGCAG,9020 fluorescence intensity (a.u.)
13,CTAGCCATACACTCCCTTTTTCTTTTCTGATATAGGGTTACGGAGTCACCTAGTGCAG,9920 fluorescence intensity (a.u.)
14,GCTAATTAATATGTTTTCACAAGTATTCTCTAACAAAGACCGGAGTCACCTAGTGCAG,8090 fluorescence intensity (a.u.)
15,ATCTAGGCACGAAGATTTTGCATTTTGTCACGGCTTTATACGGAGTCACCTAGTGCAG,8450 fluorescence intensity (a.u.)
16,TTCATATCTGCTTTTTCCTATATATGTGTGTGTGACTGCACGGAGTCACCTAGTGCAG,9710 fluorescence intensity (a.u.)
17,GCTGCCGCCGCCGCCGCCCCAGCCAACCCTATCCCGGCCCCGGAGTCACCTAGTGCAG,9470 fluorescence intensity (a.u.)
18,TAGTGGTAGTCTTGTGTTAGGGTTGTTGATTGCGCACGGACGGAGTCACCTAGTGCAG,10200 fluorescence intensity (a.u.)
19,TTGGCCTCCACGACTACCACACCATCATCACCAAGCCCATCGGAGTCACCTAGTGCAG,9080 fluorescence intensity (a.u.)
20,TGTCACCATCTTATCGCATCCCCAAGTTGCTAGTTGCTACCGGAGTCACCTAGTGCAG,8080 fluorescence intensity (a.u.)
21,ATTTGAAGGGGTATTTTGGTCATTCTTCTAGAAACTTTCTCGGAGTCACCTAGTGCAG,9710 fluorescence intensity (a.u.)
